Measurements from PMC6182827.
Results are given in words; binding and its absence hold for the method and conditions named. Binding seen in cells or lysates may run through a third protein. Some results given as binding are weak or reduced against the parent protein; the word gives no strength.

Amino acid sequences for entries named in this document (tags omitted).
UniProt P35637: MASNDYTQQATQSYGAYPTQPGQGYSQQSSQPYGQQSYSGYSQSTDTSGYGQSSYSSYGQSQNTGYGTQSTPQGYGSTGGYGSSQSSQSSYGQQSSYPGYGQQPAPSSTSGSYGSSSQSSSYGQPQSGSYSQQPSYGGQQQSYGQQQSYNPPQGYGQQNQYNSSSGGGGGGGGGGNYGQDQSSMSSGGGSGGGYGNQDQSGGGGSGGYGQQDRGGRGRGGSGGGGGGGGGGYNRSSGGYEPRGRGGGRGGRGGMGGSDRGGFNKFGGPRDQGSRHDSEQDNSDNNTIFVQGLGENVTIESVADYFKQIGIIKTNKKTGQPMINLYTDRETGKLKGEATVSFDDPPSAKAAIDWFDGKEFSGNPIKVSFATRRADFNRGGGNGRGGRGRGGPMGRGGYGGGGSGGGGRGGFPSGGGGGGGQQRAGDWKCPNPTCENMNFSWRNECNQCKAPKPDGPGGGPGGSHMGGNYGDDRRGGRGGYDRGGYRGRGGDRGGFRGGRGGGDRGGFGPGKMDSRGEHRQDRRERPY
UniProt O00327: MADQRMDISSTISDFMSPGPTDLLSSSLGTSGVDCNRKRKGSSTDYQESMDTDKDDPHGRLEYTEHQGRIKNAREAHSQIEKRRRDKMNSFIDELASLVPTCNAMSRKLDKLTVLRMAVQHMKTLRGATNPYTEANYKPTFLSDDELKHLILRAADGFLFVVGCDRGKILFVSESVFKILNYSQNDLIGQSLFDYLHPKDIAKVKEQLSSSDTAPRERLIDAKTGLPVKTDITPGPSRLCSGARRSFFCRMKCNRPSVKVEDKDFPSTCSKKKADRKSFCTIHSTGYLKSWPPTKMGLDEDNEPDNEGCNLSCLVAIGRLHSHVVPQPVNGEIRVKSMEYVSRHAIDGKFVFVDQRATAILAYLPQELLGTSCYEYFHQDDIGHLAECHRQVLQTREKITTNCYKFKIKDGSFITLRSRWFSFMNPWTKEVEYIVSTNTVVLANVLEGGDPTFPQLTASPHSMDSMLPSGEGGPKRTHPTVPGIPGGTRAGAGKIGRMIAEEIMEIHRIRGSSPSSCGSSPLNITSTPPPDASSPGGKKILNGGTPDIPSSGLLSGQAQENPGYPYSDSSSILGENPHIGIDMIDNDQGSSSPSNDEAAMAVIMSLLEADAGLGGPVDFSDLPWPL

B1: CLOCK (protein, UniProt O15516 1-846)
chain: MLFTVSCSKMSSIVDRDDSSIFDGLVEEDDKDKAKRVSRNKSEKKRRDQFNVLIKELGSMLPGNARKMDKSTVLQKSIDFLRKHKEITAQSDASEIRQDWKPTFLSNEEFTQLMLEALDGFFLAIMTDGSIIYVSESVTSLLEHLPSDLVDQSIFNFIPEGEHSEVYKILSTHLLESDSLTPEYLKSKNQLEFCCHMLRGTIDPKEPSTYEYVKFIGNFKSLNSVSSSAHNGFEGTIQRTHRPSYEDRVCFVATVRLATPQFIKEMCTVEEPNEEFTSRHSLEWKFLFLDHRAPPIIGYLPFEVLGTSGYDYYHVDDLENLAKCHEHLMQYGKGKSCYYRFLTKGQQWIWLQTHYYITYHQWNSRPEFIVCTHTVVSYAEVRAERRRELGIEESLPETAADKSQDSGSDNRINTVSLKEALERFDHSPTPSASSRSSRKSSHTAVSDPSSTPTKIPTDTSTPPRQHLPAHEKMVQRRSSFSSQSINSQSVGSSLTQPVMSQATNLPIPQGMSQFQFSAQLGAMQHLKDQLEQRTRMIEANIHRQQEELRKIQEQLQMVHGQGLQMFLQQSNPGLNFGSVQLSSGNSSNIQQLAPINMQGQVVPTNQIQSGMNTGHIGTTQHMIQQQTLQSTSTQSQQNVLSGHSQQTSLPSQTQSTLTAPLYNTMVISQPAAGSMVQIPSSMPQNSTQSAAVTTFTQDRQIRFSQGQQLVTKLVTAPVACGAVMVPSTMLMGQVVTAYPTFATQQQQSQTLSVTQQQQQQSSQEQQLTSVQQPSQAQLTQPPQQFLQTSRLLHGNPSTQLILSAAFPLQQSTFPQSHHQQHQSQQQQQLSRHRTDSLPDPSKVQPQ

Molecular target: FLAG-FUS (wild-type) (UniProt P35637)
Test: co-IP; FLAG-tagged FUS constructs transfected in HEK293T (48 hrs); lysis in NP-40 buffer (150mM NaCl, 1% NP-40, 50 mM Tris pH 8.0, 0.25% deoxycholate); 1 mg lysate pre-cleaned with IgG, anti-FLAG (DYKDDDDK) protein A/G beads overnight; partners detected by western blot

Row | Molecule | binding
1 | BMAL1 (from UniProt O00327 1-626) | binds
2 | B1 | binds
